For two molecules, binding results are on record in PMC5353646, “Allosteric modulation of peroxisomal membrane protein recognition by farnesylation of the peroxisomal import receptor PEX19” (Nature Communications, 2017).

No constants are given. Whether binding was seen depends on the method and setting.

Assay [1] has as its target non-farnesylated human PEX19 C-terminal domain (residues 161-299) (human) (UniProt P40855). The assay can be described thus: NMR 15N relaxation (tumbling correlation time); local correlation times from the 15N R2/R1 ratio, 298 K, 750 MHz; both purified.
The target in assay [2] is farnesylated human PEX19 C-terminal domain (residues 161-299) (human) (UniProt P40855). Described as above.

B1: non-farnesylated human PEX19 C-terminal domain (residues 161-299) (domain or fragment, UniProt P40855 161-299)
chain: GMDEGDGEGNILPIMQSIMQNLLSKDVLYPSLKEITEKYPEWLQSHRESLPPEQFEKYQEQHSVMCKICEQFEAETPTDSETTQKARFEMVLDLMQQLQDLGHPPKELAGEMPPGLNFDLDALNLSGPPGASGEQCLIM
Regarding B1, the binding entry in assay [1] is reported as “no binding”.

B2: farnesylated human PEX19 C-terminal domain (residues 161-299) (domain or fragment, UniProt P40855 161-299)
chain: B1 chain
modifications: farnesyl group on Cys296 (CaaX box)
In the case of B2, the binding entry in assay [2] is given as “no binding”.
